For 15 compounds, odorant receptor activation results are on record in the odorant receptor screen of Mainland et al. (2015).

Molecules are shown by their SMILES. Values joined by “and” are separate entries in the source; they are usually repeats but may differ in a detail not shown here. Identical values can stand only once. Some of the results follow. Single wells; the ratio to wells without odorant was worked out here, and repeats agree poorly.

What all share (assay): odorant receptor activation (CRE luciferase / Renilla) (fold of no-odor wells); higher = more activation
Holding throughout (conditions): 100 µM

Assay [1] concerns OR52B2 clone 1210.
Assay [2] concerns OR52B4 clone 1508.
Assay [3] relates to OR52B6 T36A/L90H/A146T/H149R/V267I clone 1306.
Assay [4] relates to OR52D1 clone 1164.
Assay [5] has as its system OR52E1 clone 1113.
Assay [6] concerns OR52E2 H174R/R264C clone 1184.
For assay [7], the system named is OR52E4 V176I/R184M/R228H clone 1123.
In assay [8] the test system is OR52E5 P234L clone 1124.
Assay [9] has as its system OR52E6 clone 1196.
Assay [10] concerns OR52E8 clone 1154.
The test system of assay [11] is OR52H1 clone 1702.
Assay [12] concerns OR52I1 clone 1521.
Assay [13] has as its system OR52I2 T132M clone 1324.
The subject of assay [14] is OR52K1 clone 1163.
Assay [15] deals with OR52K2 clone 1211.
For assay [16], the system named is OR52L1 D73N/C125R/C146R/K168T/W282R clone 1116.
Assay [17] relates to OR52L2 R169W clone 1117.
Assay [18] relates to OR52M1 clone 1143.
Assay [19] deals with OR52N1 clone 1191.
In assay [20] the test system is OR52N2 M228T clone 1569.

As for `C=CC(C)(O)CCC=C(C)C` (stereo unspecified) [linalool], the odorant receptor activation stood at 0.951 in assay [1]; 0.862 in assay [2]; 0.178 in assay [3]; 1.04 in assay [4]; 1.07 in [5]; 1.15 in assay [6]. Further, the odorant receptor activation in [7] turned out to be 1.06; in [8], 0.955; in assay [9], 1; in assay [10], 0.941; in [11], 1.42; in [12] it was 0.849. Moreover, the odorant receptor activation in assay [13] was found to be 0.954; in assay [14], 0.917; in assay [15], 1; in [16] it was 1.06; in assay [17] it was 1.19; in assay [18] it was 0.986. Also, the odorant receptor activation in assay [19] came to 1.12; in [20], 0.993.
Consider `CC12CCC(C1)C(C)(C)C2=O` (stereo unspecified) [fenchone], for which the odorant receptor activation worked out at 0.961 in [1]; 1.03 in [2]; 0.804 in assay [3]; 0.774 in assay [4]; 0.889 in assay [5]; 0.87 in assay [6]. Besides, the odorant receptor activation in assay [7] amounted to 1.5; in assay [8] it was 1.78; in assay [9] it was 1.46; in assay [10], 1.04; in assay [11] it was 1.04; in [12], 1.2. For the same compound, the odorant receptor activation in assay [13] was 1.13; in [14], 0.923; in assay [15] it was 1.01; in assay [16] it was 1.02; in [17], 0.958; in [18], 1.01. In addition, the odorant receptor activation in assay [19] was 0.809; in assay [20], 0.869.
As to `CCCCCCCCC=O` [nonyl aldehyde], the odorant receptor activation in [1] is 0.845; in [2], 0.928; in assay [3], 0.179; in [4] it was 1.13; in [5], 0.947; in assay [6] it was 1.06. The odorant receptor activation in assay [7] was found to be 1.12; in assay [8], 0.984; in assay [9] it was 1.1; in assay [10], 0.942; in [11] it was 1.17; in [12] it was 0.917. In addition, the odorant receptor activation in assay [13] was found to be 0.979; in assay [14], 0.943; in [15], 1.12; in [16], 1.01; in assay [17] it was 1.18; in [18], 1.05. Moreover, the odorant receptor activation in assay [19] came to 0.973; in [20], 0.658.
Take `CCC1(O)C2(C)CCC(C2)C1(C)C` (stereo unspecified) [2-ethylfenchol]: the odorant receptor activation in assay [1] amounted to 0.833; in assay [2] it was 1.06; in assay [3], 0.952; in assay [4], 0.719; in assay [5], 10.5; in [6], 1.13. In addition, the odorant receptor activation in [7] was found to be 1.03; in assay [8] it was 0.779; in [9], 1.29; in [10] it was 0.815; in [11], 0.827; in [12] it was 1.07. Further, the odorant receptor activation in [13] was 1.03; in [14] it was 1.31; in [15] it was 0.985; in [16], 30.7; in assay [17] it was 26.9; in [18] it was 1.28. For the same compound, the odorant receptor activation in assay [19] was 1.14; in assay [20], 0.77.
Take `CCCCCC(C)=O` [2-heptanone]: the odorant receptor activation in assay [1] is 0.679; in assay [2], 0.971 and 0.685; in assay [3], 0.853; in [4], 1.11; in [5], 0.557; in assay [6], 1.19. Moreover, the odorant receptor activation in [9] was 1.1; in assay [10], 1.43; in assay [12], 0.912 and 0.65; in assay [13], 2.99; in assay [14], 0.969; in assay [15], 0.996. Moreover, the odorant receptor activation in assay [18] worked out at 1.21; in [19] it was 0.897.
Consider `C=CCc1ccc(O)c(OC)c1` [eugenol], for which the odorant receptor activation in assay [1] was 1.86 and 1.3; in assay [2] it was 1.48 and 0.994 and 1.09; in [4], 2.28 and 1.11; in assay [5] it was 0.678 and 1.16; in assay [6] it was 1.8 and 1.43; in assay [7], 0.835. The odorant receptor activation in [8] was 1.26; in assay [9], 2.13 and 1.53; in assay [10], 1.7 and 1.27; in [11], 1.15; in [12], 1.89 and 0.922 and 1.72; in assay [13], 1.86 and 1.45. Besides, the odorant receptor activation in assay [14] is 2.18 and 1.26; in [15], 2.41 and 1.2; in assay [16], 1.57; in assay [17], 1.28; in assay [18], 4.1 and 1.49; in [19], 2.07 and 1.2. Moreover, the odorant receptor activation in assay [20] is 1.3.
`COc1ccccc1O` [guaiacol]: the odorant receptor activation was 1.32 in assay [1]; 0.877 and 1.45 in [3]; 0.644 in assay [4]; 0.789 in assay [5]; 1.08 in assay [6]; 1.36 in [7]. The odorant receptor activation in assay [8] is 1.48; in assay [9], 1.02; in assay [10] it was 1.23; in assay [11], 1.05; in assay [12], 0.821 and 1.28; in assay [13] it was 0.772 and 0.755. In addition, the odorant receptor activation in assay [14] stood at 0.965; in assay [15], 0.837; in assay [16], 0.667; in [17], 1.45; in assay [18] it was 0.717; in assay [19], 0.978. The odorant receptor activation in [20] was determined as 1.1.
Take `O=C1CCCCCCCCCCCC(=O)OCCO1` [ethylene brassylate]: the odorant receptor activation in assay [1] was 1.79; in [2], 1.1; in assay [3] it was 1.21; in [4], 1.86; in assay [5], 1.14; in assay [6], 1.41. Besides, the odorant receptor activation in assay [7] worked out at 0.917; in assay [8] it was 1.33; in assay [9], 1.8; in assay [10], 1.55; in assay [11] it was 1.06; in assay [12] it was 1.52. Also, the odorant receptor activation in assay [13] is 1.51; in assay [14], 2.01; in assay [15], 1.63; in assay [16], 1.68; in [17], 2.04; in [18], 1.65. The results for the odorant receptor activation in assay [19] and in assay [20] were 1.72 and 1.69, respectively.
In the case of `CC(=O)OCC=C(C)CCC=C(C)C` [geranyl acetate], the odorant receptor activation in assay [1] was 1.44; in [3], 0.985 and 1.95; in assay [4], 0.623; in assay [5], 1.32; in assay [6], 1.41; in assay [7], 2.13. For the same compound, the odorant receptor activation in assay [8] is 2.67; in assay [9] it was 0.837; in assay [10], 0.798; in assay [11], 1.4; in [12], 0.985 and 1.77; in assay [13], 0.972 and 1.01. Moreover, the odorant receptor activation in [14] turned out to be 1.15; in assay [15] it was 0.987; in assay [16] it was 1.38; in assay [17] it was 1.41; in assay [18], 0.871; in [19], 1.08. This compound displayed an odorant receptor activation in assay [20] of 1.36.
Turning to `C=C(C)C1CC=C(C)C(=O)C1` (stereo unspecified) [r-carvone], the odorant receptor activation in assay [1] amounted to 0.68; in assay [2] it was 0.913; in assay [3], 0.756; in assay [4] it was 1.07; in assay [5], 0.868; in [6] it was 0.824. The odorant receptor activation in assay [7] came to 1.12; in assay [8], 0.893; in assay [9], 1.01; in [10], 0.918; in assay [11], 0.998; in [12], 0.96. In addition, the odorant receptor activation in assay [13] came out at 0.94; in assay [14] it was 0.931; in assay [15] it was 0.911; in assay [16] it was 0.908; in [17] it was 0.676; in assay [18] it was 1.12. The odorant receptor activation in [19] turned out to be 0.877; in [20] it was 0.885.
On to `CC1=NC(C)SC1C` (stereo unspecified), for which the odorant receptor activation in [1] was 0.836; in assay [2] it was 1.15 and 0.989; in [3] it was 1.53; in [4] it was 0.774; in assay [5], 1.18; in assay [6] it was 0.827. The odorant receptor activation in assay [9] is 0.921; in assay [10], 0.782; in assay [12] it was 1.02 and 0.959; in [13] it was 0.703; in [14], 0.605; in [15], 0.824. Also, the odorant receptor activation is 0.948 in [18] and 0.886 in [19].
Turning to `CC(=O)OC(C)(C)C1CC=C(C)CC1` (stereo unspecified) [terpinyl acetate], the odorant receptor activation in [1] is 0.948; in [2], 0.906; in assay [3] it was 0.999; in [4], 1.66; in assay [5], 1.27; in assay [6] it was 0.896. The odorant receptor activation in [7] was determined as 0.822; in [8] it was 0.811; in assay [9] it was 1.11; in [10], 1.58; in assay [11] it was 0.943; in assay [12], 1.13. Moreover, the odorant receptor activation was determined as 0.82 in assay [13]; 1.24 in assay [14]; 1.21 in [15]; 1.4 in assay [16]; 1.05 in assay [17]; 1.29 in assay [18]. Further, the figures for the odorant receptor activation in assay [19] and in [20] were 1.02 and 0.539, respectively.
Regarding `O=C1CCCCC1` [Cyclohexanone], the odorant receptor activation was 0.59 in assay [1]; 0.53 and 0.977 in [2]; 0.579 in assay [3]; 0.671 in assay [4]; 1.25 in assay [5]; 0.928 in [6]. Besides, the odorant receptor activation in [9] was 0.79; in assay [10], 0.966; in assay [12], 1.25 and 0.951; in [13], 0.861; in assay [14], 0.632; in assay [15], 0.858. In addition, the odorant receptor activation in [18] was 0.979; in [19] it was 0.918.
As to `CCCCCCC=O` [heptaldehyde], the odorant receptor activation in assay [3] is 0.493 and 0.983 and 1.12; in assay [4], 0.317 and 0.514; in assay [5] it was 1.17 and 1.05; in assay [6] it was 0.344 and 1.02; in assay [7], 1.54; in assay [8], 1.48. Besides, the odorant receptor activation in [11] is 1.36; in assay [13] it was 0.768 and 1.19 and 0.803; in [16], 1.12; in assay [17], 2; in assay [18], 0.452 and 0.943; in assay [19] it was 0.376 and 1.02. Also, the odorant receptor activation in assay [20] came to 0.8.
For `CCCCCCCOC(C)=O` [heptyl acetate], the odorant receptor activation in assay [1] was 1.4; in assay [3], 0.92 and 1.47; in assay [4], 0.537; in assay [5], 0.528; in assay [6], 0.76; in [7], 1.21. The odorant receptor activation in assay [8] is 1.33; in [9], 1.12; in assay [10], 1.01; in [11] it was 0.994; in assay [12], 0.957 and 1.72; in assay [13], 0.871 and 1.25. Also, the odorant receptor activation in assay [14] worked out at 1.24; in [15], 0.732; in assay [16] it was 0.456; in [17] it was 2.37; in [18], 1.03; in assay [19], 1.06. Besides, in assay [20], the odorant receptor activation turned out to be 0.886.
